No constants are given. Whether binding was seen depends on the method and setting. In cells and extracts the contact can be indirect. Some results given as binding are weak or reduced against the parent protein; the word gives no strength.

Sequences of proteins named here, by UniProt entry; tags and fusion partners are left off.
UniProt P26041: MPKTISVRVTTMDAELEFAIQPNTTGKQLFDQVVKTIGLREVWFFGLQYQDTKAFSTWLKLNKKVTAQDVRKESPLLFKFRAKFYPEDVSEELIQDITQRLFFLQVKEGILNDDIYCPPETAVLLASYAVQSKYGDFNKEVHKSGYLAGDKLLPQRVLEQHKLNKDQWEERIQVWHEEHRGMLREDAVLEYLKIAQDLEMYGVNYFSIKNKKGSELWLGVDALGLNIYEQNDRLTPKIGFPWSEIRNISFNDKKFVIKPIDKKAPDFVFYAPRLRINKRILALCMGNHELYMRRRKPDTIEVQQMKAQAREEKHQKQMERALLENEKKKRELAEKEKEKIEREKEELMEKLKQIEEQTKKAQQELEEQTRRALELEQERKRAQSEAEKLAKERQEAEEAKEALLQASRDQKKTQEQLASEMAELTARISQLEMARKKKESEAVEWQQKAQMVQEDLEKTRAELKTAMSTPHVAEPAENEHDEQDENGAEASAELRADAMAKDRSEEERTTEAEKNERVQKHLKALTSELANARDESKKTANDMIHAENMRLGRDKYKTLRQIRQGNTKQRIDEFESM

The target of assay [1] is moesin (mouse (endogenous in bEND5)) (UniProt P26041). As to the kind of experiment: condition: only cells not induced with latrunculin A; co-IP; as a1 with the moesin antibody, lysate of bEND5 cells not induced to form fenestrae (no latrunculin A).
For assay [2] the target is unchanged. The experiment in a line: co-IP; endogenous proteins; bEND5 whole-cell lysate (0.025 M Tris, 0.15 M NaCl, 0.001 M EDTA, 1% NP-40, 5% glycerol, pH 7.4), 500 µg protein, precleared, antibody to PV-1, moesin, fodrin or Na,K-α overnight at 4 °C, Protein A/G Agarose, immunoblot; cells treated with vehicle, latrunculin A (time course) or ouabain, or transfected with control or annexin II siRNA. (In general: Immunoblotting shows a protein as a band on a membrane.)

B1: PV-1 (protein, UniProt Q91VC4 1-438)
chain: MGLSMDRSPYARTGDQQRGCWYYLRYFFLFVSLIQFLIILGLVLFMIYGNVHATTESSLRATEIRADSLYSQVVGLSASQANLSKQLNISLLVKETVMQQLLTTRREMERINASFRQCQGDLITYINYNRFIAAIILSEKQCQEQLKEVNKTCEALLFKLGEKVKTLEMEVAKEKAVCSKDKESLLAGKRQTEEQLEACGKARERQQQEQQVTEENLRKVQSLCIPLDQEKFQADVLSAWRDSLIYRTLETLPYHYQLMPEYASLRRTCESLPGIMTTKIEELARGLRAGIERVTRENAELRRQKLELERAAQAAQEARARAGTEAQARETQLRAECARQTQLALEEKAALRAQRDNLERELEARKRELEQLRTEVDVRISALDTCVKAKSLPAVPPRVSGPPPNPPPIDPASLEEFKKRILESQRLPVVNPAAQPSG
Consider B1, for which the binding entry is “no binding” in assay [1] and “binds” in assay [2].

The values above are taken from article PMC7349347.
